log2 fold change data for 33 targets are collected here from the supplement of paper PMC10849652.

By UniProt entry, the sequences of proteins in these tests, tags left out. Where a name states a change or a piece, a line headed by the entry shows the natural chain unless it says otherwise.
UniProt O14737: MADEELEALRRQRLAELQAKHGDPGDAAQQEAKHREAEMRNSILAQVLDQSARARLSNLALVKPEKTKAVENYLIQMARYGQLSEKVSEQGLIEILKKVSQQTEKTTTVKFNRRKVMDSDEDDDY
UniProt Q14690: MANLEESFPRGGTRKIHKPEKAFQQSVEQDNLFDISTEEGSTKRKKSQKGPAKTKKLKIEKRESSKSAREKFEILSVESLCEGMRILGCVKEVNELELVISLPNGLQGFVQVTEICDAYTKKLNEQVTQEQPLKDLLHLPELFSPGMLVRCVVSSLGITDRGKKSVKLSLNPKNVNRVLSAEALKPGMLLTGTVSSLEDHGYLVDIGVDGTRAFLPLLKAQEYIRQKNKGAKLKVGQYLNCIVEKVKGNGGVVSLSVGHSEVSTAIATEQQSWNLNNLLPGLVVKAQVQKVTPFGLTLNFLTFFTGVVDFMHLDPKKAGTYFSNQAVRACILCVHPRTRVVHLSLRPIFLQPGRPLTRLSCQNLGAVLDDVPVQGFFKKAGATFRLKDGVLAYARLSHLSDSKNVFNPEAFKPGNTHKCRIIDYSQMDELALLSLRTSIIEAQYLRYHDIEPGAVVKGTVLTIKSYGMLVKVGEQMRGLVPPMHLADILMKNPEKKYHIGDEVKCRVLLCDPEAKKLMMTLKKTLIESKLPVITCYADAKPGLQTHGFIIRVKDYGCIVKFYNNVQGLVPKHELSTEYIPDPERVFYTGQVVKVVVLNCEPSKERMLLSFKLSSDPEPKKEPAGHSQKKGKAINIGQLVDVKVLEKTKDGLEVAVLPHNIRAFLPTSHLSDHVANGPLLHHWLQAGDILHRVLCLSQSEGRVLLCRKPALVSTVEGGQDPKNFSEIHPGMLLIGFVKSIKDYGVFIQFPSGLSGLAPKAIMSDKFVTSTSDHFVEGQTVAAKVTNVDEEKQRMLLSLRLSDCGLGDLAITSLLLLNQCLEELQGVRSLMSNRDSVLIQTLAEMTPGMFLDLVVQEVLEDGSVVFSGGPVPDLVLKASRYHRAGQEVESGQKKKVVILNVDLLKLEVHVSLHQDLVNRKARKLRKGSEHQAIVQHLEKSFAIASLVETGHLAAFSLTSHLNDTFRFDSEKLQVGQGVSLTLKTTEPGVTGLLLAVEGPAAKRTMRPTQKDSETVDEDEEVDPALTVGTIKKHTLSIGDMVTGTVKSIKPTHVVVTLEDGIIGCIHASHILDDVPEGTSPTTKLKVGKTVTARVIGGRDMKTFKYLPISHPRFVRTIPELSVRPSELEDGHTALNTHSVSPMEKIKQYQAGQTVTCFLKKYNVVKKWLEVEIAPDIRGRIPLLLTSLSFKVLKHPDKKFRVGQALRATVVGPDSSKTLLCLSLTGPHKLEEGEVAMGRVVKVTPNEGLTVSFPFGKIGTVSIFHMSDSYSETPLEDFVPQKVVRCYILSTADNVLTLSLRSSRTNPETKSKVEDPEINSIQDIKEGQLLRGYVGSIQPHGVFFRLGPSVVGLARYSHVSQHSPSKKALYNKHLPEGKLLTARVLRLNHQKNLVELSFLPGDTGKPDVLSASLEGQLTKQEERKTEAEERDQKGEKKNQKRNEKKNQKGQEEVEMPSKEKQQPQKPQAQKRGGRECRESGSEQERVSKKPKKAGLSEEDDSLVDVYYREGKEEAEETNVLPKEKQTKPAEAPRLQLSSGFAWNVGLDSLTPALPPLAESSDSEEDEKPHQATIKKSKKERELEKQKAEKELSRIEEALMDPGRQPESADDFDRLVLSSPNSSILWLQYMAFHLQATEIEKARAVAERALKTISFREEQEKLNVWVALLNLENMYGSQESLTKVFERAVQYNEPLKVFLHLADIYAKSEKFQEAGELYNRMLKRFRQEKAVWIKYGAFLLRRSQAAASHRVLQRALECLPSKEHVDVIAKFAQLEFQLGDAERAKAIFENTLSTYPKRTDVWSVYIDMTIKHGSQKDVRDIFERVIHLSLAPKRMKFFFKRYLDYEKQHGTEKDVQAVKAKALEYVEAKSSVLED
UniProt O75914, whole entry, looked up: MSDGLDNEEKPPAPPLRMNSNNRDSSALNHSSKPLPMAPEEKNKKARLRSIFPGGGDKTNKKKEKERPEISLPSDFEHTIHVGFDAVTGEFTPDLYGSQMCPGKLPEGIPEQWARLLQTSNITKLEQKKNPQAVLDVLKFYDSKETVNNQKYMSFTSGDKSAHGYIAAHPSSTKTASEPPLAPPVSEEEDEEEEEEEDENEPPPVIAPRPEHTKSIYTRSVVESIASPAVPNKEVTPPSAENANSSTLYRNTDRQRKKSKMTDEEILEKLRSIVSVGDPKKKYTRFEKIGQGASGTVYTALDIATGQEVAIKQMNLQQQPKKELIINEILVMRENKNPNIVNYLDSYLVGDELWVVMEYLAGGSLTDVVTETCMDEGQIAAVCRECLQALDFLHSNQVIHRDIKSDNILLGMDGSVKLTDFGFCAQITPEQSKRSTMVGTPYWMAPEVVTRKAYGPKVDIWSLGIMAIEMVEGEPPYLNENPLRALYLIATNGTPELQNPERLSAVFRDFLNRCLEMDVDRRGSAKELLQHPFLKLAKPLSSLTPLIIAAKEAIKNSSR
UniProt Q9BPZ3: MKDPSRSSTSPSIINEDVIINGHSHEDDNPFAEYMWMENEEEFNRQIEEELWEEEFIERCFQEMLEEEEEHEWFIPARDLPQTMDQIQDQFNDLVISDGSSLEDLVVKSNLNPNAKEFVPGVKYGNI
UniProt Q96RD7, whole entry, looked up: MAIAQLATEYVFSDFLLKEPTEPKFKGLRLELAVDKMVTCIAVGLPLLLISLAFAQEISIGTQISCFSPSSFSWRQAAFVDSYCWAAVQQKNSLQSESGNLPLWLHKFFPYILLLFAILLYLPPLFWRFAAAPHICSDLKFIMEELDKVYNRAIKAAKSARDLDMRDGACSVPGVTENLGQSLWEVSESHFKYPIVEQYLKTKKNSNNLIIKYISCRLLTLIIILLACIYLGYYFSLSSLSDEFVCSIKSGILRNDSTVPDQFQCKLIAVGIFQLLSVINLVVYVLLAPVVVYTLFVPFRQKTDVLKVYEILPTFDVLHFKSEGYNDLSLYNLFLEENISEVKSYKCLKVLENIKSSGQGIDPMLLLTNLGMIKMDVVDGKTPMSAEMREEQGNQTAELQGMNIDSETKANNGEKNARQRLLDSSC
UniProt O00330, whole entry, looked up: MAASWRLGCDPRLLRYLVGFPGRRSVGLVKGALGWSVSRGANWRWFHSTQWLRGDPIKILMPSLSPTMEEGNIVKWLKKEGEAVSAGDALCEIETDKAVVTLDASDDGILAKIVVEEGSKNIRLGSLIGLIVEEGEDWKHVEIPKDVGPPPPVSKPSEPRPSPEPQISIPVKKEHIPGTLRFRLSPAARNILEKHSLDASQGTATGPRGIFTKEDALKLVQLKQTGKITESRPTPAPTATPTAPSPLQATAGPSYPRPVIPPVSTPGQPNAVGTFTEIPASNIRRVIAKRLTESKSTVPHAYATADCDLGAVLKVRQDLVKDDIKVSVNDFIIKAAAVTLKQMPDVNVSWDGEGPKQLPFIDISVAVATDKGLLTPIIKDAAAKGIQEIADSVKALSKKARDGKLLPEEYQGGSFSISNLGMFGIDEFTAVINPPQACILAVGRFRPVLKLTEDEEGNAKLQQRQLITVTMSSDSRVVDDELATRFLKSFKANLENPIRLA
UniProt O75381, whole entry, looked up: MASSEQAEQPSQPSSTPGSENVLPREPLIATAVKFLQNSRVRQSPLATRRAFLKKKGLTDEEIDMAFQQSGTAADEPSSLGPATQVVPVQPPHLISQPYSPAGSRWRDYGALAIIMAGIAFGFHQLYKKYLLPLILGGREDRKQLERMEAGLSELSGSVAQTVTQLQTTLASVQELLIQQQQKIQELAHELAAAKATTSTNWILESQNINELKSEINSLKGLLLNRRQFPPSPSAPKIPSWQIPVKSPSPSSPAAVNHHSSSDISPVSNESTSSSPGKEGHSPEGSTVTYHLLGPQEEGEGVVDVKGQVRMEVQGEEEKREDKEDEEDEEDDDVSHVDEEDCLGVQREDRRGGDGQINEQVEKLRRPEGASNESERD
UniProt Q9H0N5: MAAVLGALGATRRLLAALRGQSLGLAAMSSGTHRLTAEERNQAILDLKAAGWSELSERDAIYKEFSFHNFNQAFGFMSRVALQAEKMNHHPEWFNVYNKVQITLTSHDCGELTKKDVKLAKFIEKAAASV
UniProt Q8NEN9: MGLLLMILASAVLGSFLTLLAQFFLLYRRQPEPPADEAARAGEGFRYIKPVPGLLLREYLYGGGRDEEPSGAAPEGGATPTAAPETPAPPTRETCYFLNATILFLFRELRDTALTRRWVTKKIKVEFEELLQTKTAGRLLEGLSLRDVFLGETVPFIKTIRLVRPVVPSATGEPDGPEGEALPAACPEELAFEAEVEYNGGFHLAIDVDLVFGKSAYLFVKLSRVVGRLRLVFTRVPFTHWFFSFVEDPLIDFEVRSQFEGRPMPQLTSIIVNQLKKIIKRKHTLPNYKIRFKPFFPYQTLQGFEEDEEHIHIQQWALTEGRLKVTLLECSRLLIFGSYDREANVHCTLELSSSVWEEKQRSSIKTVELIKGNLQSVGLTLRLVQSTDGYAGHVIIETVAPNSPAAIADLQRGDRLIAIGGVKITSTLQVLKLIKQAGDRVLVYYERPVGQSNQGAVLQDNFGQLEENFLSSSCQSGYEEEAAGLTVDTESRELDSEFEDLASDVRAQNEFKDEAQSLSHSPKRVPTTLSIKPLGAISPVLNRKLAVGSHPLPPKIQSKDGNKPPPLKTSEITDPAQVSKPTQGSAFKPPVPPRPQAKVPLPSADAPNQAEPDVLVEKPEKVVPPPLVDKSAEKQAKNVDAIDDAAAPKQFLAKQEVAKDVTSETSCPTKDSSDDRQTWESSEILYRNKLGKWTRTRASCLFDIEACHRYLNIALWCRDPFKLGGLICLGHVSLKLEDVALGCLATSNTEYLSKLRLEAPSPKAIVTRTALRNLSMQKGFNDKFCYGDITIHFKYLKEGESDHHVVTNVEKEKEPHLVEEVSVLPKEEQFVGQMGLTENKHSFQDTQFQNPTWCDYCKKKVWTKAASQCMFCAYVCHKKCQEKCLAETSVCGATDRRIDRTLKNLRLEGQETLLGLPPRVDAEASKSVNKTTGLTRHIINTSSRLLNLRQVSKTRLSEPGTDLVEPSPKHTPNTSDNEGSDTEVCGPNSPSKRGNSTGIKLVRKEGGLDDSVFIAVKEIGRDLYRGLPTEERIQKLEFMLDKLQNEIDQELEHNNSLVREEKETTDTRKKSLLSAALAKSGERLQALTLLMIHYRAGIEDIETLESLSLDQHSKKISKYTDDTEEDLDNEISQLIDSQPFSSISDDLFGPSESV
UniProt O00623: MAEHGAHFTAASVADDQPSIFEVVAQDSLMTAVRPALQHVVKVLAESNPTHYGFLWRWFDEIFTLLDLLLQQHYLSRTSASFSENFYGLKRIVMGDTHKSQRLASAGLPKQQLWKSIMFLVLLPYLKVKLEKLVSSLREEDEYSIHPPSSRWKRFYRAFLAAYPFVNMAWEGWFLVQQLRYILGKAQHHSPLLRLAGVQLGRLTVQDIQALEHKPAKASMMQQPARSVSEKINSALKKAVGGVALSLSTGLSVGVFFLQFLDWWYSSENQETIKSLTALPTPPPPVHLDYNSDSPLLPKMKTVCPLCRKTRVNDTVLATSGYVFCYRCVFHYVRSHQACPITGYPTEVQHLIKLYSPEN
UniProt P61457: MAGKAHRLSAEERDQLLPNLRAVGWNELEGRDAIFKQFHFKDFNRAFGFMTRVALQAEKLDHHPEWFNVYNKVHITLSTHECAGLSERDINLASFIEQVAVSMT
UniProt Q14554: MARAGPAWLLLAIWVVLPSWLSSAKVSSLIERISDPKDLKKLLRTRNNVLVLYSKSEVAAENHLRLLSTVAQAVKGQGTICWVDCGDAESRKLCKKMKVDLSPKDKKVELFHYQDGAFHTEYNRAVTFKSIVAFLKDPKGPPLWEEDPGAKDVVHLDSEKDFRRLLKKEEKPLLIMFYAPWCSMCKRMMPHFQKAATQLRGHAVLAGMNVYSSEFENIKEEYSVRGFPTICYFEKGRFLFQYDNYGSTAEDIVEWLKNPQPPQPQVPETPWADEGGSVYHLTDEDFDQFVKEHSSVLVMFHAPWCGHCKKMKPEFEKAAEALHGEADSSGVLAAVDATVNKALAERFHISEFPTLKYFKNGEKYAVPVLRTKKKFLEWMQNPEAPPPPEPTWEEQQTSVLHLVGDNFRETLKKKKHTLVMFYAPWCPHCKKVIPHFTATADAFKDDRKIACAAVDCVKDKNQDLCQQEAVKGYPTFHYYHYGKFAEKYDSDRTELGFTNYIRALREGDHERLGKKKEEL
UniProt O00764: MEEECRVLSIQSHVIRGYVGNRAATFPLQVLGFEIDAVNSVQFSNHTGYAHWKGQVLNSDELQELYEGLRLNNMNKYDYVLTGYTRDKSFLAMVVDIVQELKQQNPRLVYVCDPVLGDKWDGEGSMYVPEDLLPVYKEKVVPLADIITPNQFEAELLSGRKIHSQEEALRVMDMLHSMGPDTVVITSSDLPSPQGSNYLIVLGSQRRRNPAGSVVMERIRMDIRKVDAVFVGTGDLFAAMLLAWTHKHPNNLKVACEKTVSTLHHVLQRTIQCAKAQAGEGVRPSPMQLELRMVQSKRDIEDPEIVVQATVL

The other results are listed elsewhere or left out.

Compound in this experiment: CC1=C(C=C(C=C1)NC(=O)C2=CC(=CC=C2)C(C)(C)C#N)NC3=CC4=C(C=C3)N=CN(C4=O)C
Put plainly: log2 fold change, soluble protein after heating vs DMSO (PISA); higher = thermal stabilisation; K562 cells, 10 uM, 30 min; active = over 0.2 and 3.5 SD of the protein, either way, in both replicates (recomputed). Put shortly:
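Aliquots of K562 cells (2×10^6 cells/mL) treated with 10 μM compound for 30 min were heated for 3 min over 48°C-58°C. After pooling and extraction in PBS with 0.5% NP-40 at 4°C, soluble protein from a 21,000xg, 90 min spin was quantified by TMTpro 16plex LC-MS/MS with channel sums equalised. Thermal stability is expressed against control samples, from duplicates, as a log2 fold change.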
Regarding PCYOX1 (UniProt Q9UHG3), the log2 fold change is inactive: 0.053.

Take PDCL (UniProt Q13371): the log2 fold change is inactive: -0.001.

As for PDCD5 (UniProt O14737), the log2 fold change is inactive: 0.207.

For PAGR1 (UniProt Q9BTK6), the log2 fold change is inactive: 0.031.

Take PDCD11 (UniProt Q14690): the log2 fold change is inactive: -0.002.

Take PDSS1 (UniProt Q5T2R2): the log2 fold change was inactive: -0.076.

Take PAK3 isoform 3 (UniProt O75914): the log2 fold change was inactive: 0.054.

For PAIP2 (UniProt Q9BPZ3), the log2 fold change was inactive: -0.008.

Take PDF (UniProt Q9HBH1): the log2 fold change is inactive: -0.051.

On to PANX1 (UniProt Q96RD7), for which the log2 fold change is inactive: 0.027.

For the target PDHX (UniProt O00330), the log2 fold change is inactive: 0.023.

Consider PDHB (UniProt P11177), for which the log2 fold change was inactive: 0.03.

For PAK2 (UniProt Q13177), the log2 fold change was inactive: 0.006.

On to PEX14 (UniProt O75381), for which the log2 fold change was inactive: 0.056.

As for PASK (UniProt Q96RG2), the log2 fold change was inactive: 0.025.

On to PCSK9 (UniProt Q8NBP7), for which the log2 fold change is inactive: 0.126.

In the case of PAPSS1 (UniProt O43252), the log2 fold change is inactive: -0.023.

For PDIA4 (UniProt P13667), the log2 fold change was inactive: 0.026.

Consider PABPC4 isoform 3 (UniProt Q13310), for which the log2 fold change is inactive: 0.052.

Turning to PCBD2 (UniProt Q9H0N5), the log2 fold change is inactive: 0.01.

For the target PDCL3 (UniProt Q9H2J4), the log2 fold change is inactive: 0.002.

On to PDLIM4 (UniProt P50479), for which the log2 fold change was inactive: -0.012.

PCNA (UniProt P12004): the log2 fold change is inactive: 0.014.

In the case of PDXDC1 (UniProt Q6P996), the log2 fold change is inactive: 0.13.

On to PAFAH1B1 (UniProt P43034), for which the log2 fold change is inactive: -0.006.

With PDZD8 (UniProt Q8NEN9), the log2 fold change is inactive: 0.032.

PEX12 (UniProt O00623): the log2 fold change was inactive: -0.001.

Take PCBD1 (UniProt P61457): the log2 fold change was inactive: -0.096.

On to PDIA5 (UniProt Q14554), for which the log2 fold change was inactive: 0.029.

On to PDXK (UniProt O00764), for which the log2 fold change was inactive: -0.05.

PBLD (UniProt P30039): the log2 fold change was inactive: -0.088.

With PEX1 (UniProt O43933), the log2 fold change was inactive: -0.025.

Turning to PANK2 (UniProt Q9BZ23), the log2 fold change is inactive: 0.074.
